Part of at least one peptide drawing is inferred or uncertain, most often the ends. Peptide text beside a SMILES is read from it.
Test system: MOG/pertussis toxin-treated mice
Assay: MOG-induced experimental allergic encephalomyelitis (EAE)
Type: in vivo
[1] = 50 μg F991/animal i.p. daily from day −1 until day 21

CC(C)C[C@H](NC(=O)[C@H](CS)NC(=O)[C@H](CS)NC(=O)[C@H](Cc1c[nH]cn1)NC(=O)CNC(=O)[C@H](CO)NC(=O)[C@H](Cc1c[nH]c2ccccc12)NC(=O)[C@H](Cc1c[nH]cn1)NC(=O)[C@H](C)N)C(=O)O [F991] (H-AHWSGHCCL-OH)
development of clinical signs of paralysis [1]: completely prevented
disease burden (mean cumulative EAE score) [1]: 4.2
clinical symptoms after termination of the treatment (termination of F991 at 21 days after sensitization): some minor clinical symptoms

From patent publication US20050191290A1, “Means and methods for manipulating hypersensitivity-like responses” (priority 2002, published 2005)
